Tested on: patients with T1D
Assay: Blood pressure, arterial stiffness, HRV and adrenergic mediators in normotensive T1D patients under clamped euglycemia and hyperglycemia
Assay type: in vivo, human
Settings: both glycemic conditions; 8 weeks of 25 mg daily
Method: Blood pressure, arterial stiffness, heart rate variability (HRV) and circulating adrenergic mediators were measured during clamped euglycemia and hyperglycemia in 40 normotensive patients with T1D. Studies were repeated after 8 weeks of empagliflozin (25 mg daily).
Augmentation index (Alx) for the radial and carotid arteries as well as a derived aortic Alx and carotid, radial and femoral pulse wave velocities (PWV) are measured for assessment of arterial stiffness using a SphygmoCor® System (AtCor Medical Inc., Itasca, Ill.).

OC[C@H]1O[C@@H](c2ccc(Cl)c(Cc3ccc(O[C@H]4CCOC4)cc3)c2)[C@H](O)[C@@H](O)[C@@H]1O [empagliflozin, 1-chloro-4-(β-D-glucopyranos-1-yl)-2-[4-((S)-tetrahydrofuran-3-yloxy)-benzyl]-benzene]
remained unchanged: heart rate variability (HRV) | plasma adrenaline | plasma noradrenaline

Reference: US11813275B2, “Pharmaceutical composition, methods for treating and uses thereof” (Boehringer Ingelheim International GmbH, priority 2013, dated 2023)
